Source: PMC10704561, “Multi-Photon-Sensitive Chromophore for the Photorelease of Biologically Active Phenols” (ACS Chemical Neuroscience, 2023)

Key:
[1] = One-photon excitation (1PE) photolysis with 365 nm LED, HPLC quantification; type: physicochemical; conditions: for yield (chemical yield of released compounds) / Φu (quantum yield of photolysis): 1PE 365 nm, 0.1 mM in KMOPS pH 7.2 (3d, 6c: 10 or 20% CH3CN added); for sensitivity (ε Φu): 365 nm, KMOPS pH 7.2
Experimental: A 0.1 mM solution (3 mL) of each protected phenol in KMOPS buffer (10 or 20% CH3CN was used as a cosolvent for 3d and 6c) was placed in a 3 mL quartz cuvette along with a stirring bar. The solution was irradiated with stirring using a 365 nm LED lamp (Cairn OptoLED Lite). At different time intervals, 80 μL aliquots of the solution were taken out and analyzed by uHPLC (Agilent 1290 Infinity series), monitoring the AUC at 320 nm (Supporting Information, HPLC Data). An external standard calibration method of quantification was used for the calibration of the samples. The experiments were repeated in sets of three. A gradient elution with a flux rate of 0.3 mL/min using a mobile phase comprising A = 0.1% trifluoroacetic acid in water and B = acetonitrile (starting from 5% B to 100% over 10 min and re-equilibrating to 5% B before the next run) was used for the separations. A comparison of the AUC with the calibration curves of the substrates (obtained from known concentration) determined the percentages of the remaining starting materials. The percentages of the remaining starting materials were plotted versus time. The time to 90% of decomposition of the substrate (t90% values) was obtained by fitting a single exponential decay curve to the data using DeltaGraph (Red Rock Software). The following equation was used to calculate the quantum yield (Φu) of each photolysis reaction:[42],[47],[56],[57] Φu = (I σ t90%)^−1, where I is the irradiation intensity (determined by potassium ferrioxalate actinometry and measured in Einstein cm^–2 s^–1),[58] σ is the decadic extinction coefficient (1000 × ε) at 365 nm, and t90% is the time required to consume 90% of the starting material. See Supporting Information Table S1 for the I, σ, and t90% data.

[2] = Two-photon excitation (2PE) photolysis with Ti:sapphire laser, fluorescein as external standard; type: physicochemical; parameters: key to δu 720 (two-photon uncaging action cross section) / δu 740 (two-photon uncaging action cross section): np: No photolysis; conditions: for δu 740 (two-photon uncaging action cross section): 2PE 740 nm; for δu 740 (two-photon uncaging action cross section) / δu 720 (two-photon uncaging action cross section): KMOPS pH 7.2, GM = 10^–50 cm^4 s/photon; for δu 720 (two-photon uncaging action cross section): 2PE 720 nm
[3] = parameters: method as in PMID 32077679; conditions: cited from earlier work

SMILES	yield (chemical yield of released compounds) [1] [%]	Φu (quantum yield of photolysis) [1]	sensitivity (ε Φu) [1]	δu 740 (two-photon uncaging action cross section) [2]	δu 720 (two-photon uncaging action cross section) [2]	fold higher δu than CyHQ-O-DA ([2]; 1.49 GM at 720 nm versus 0.24 GM for CyHQ-O-DA) [fold]	photolysis achieved under 2PE ([2]; 720 nm, within 30 min of irradiation)	fold enhancement of δu compared to CyHQ-O-DA ([2]; 740 nm) [fold]	δu 720 (two-photon uncaging action cross section) ([2]; listed as MeO-CyHQ-O-RTG)	yield (chemical yield of released compounds) ([3]; 1PE) [%]	Φu (quantum yield of photolysis) ([3]; 1PE)	sensitivity (ε Φu) [3]
Cc1cc(COc2cc(CCN)ccc2O)nc2c(C#N)c(O)ccc12.O=C(O)C(F)(F)F [3a, 2-(3-((8-Cyano-7-hydroxy-4-methylquinolin-2-yl)methoxy)-4-hydroxyphenyl)ethan-1-aminium 2,2,2-trifluoroacetate]	46	0.25	1235	0.50 GM								
Cc1ccc(-c2cc(COc3cc(CCN)ccc3O)nc3c(C#N)c(O)ccc23)cc1.O=C(O)C(F)(F)F [3d, 2-(3-((8-Cyano-7-hydroxy-4-(p-tolyl)quinolin-2-yl)methoxy)-4-hydroxyphenyl)ethan-1-aminium 2,2,2-trifluoroacetate]	54	0.07	337	0.53 GM								
CCCCCCCCC(=O)NCc1ccc(OCc2cc(OC)c3ccc(O)c(C#N)c3n2)c(OC)c1 [6c, N-(4-((8-Cyano-7-hydroxy-4-methoxyquinolin-2-yl)methoxy)-3-methoxybenzyl)nonanamide]	63	0.51	1731	0.85 GM	1.36 GM							
COc1cc(COc2ccc(CCN)cc2O)nc2c(C#N)c(O)ccc12.O=C(O)C(F)(F)F [3c, 2-(4-((8-Cyano-7-hydroxy-4-methoxyquinolin-2-yl)methoxy)-3-hydroxyphenyl)ethan-1-aminium 2,2,2-trifluoroacetate]	56	0.36	2045	0.85 GM	1.49 GM	6	up to 28%	3.5				
COc1cc(COc2ccc3[nH]cc(CCN)c3c2)nc2c(C#N)c(O)ccc12.O=C(O)C(F)(F)F [4c, 2-(5-((8-Cyano-7-hydroxy-4-methoxyquinolin-2-yl)methoxy)-1H-indol-3-yl)ethan-1-aminium 2,2,2-trifluoroacetate]	31	0.40	2168	1.01 GM	1.61 GM							
CCCN(CCc1cccs1)[C@@H]1CCc2c(cccc2OCc2cc(OC)c3ccc(O)c(C#N)c3n2)C1 [5c, (R)-7-Hydroxy-4-methoxy-2-(((6-(propyl(2-(thiophen-2-yl)ethyl)amino)-5,6,7,8-tetrahydronaphthalen-1-yl)oxy)methyl)quinoline-8-carbonitrile]	13	0.12	278	np ^i	np ^i				did not undergo photorelease			
COc1cc(-c2cc(COc3cc(CCN)ccc3O)nc3c(C#N)c(O)ccc23)cc(OC)c1OC.O=C(O)C(F)(F)F [3e, 2-(3-((8-Cyano-7-hydroxy-4-(3,4,5-trimethoxyphenyl)quinolin-2-yl)methoxy)-4-hydroxyphenyl)ethan-1-aminium 2,2,2-trifluoroacetate]	40	0.03	142	could not be executed; also recorded: np ^i								
N#Cc1c(O)ccc2ccc(COc3cc(CCN)ccc3O)nc12 [CyHQ-O-DA]										67	0.19	990
N#Cc1c(O)ccc2c(N3CCOCC3)cc(COc3cc(CCN)ccc3O)nc12.O=C(O)C(F)(F)F [3b, 2-(3-((8-Cyano-7-hydroxy-4-morpholinoquinolin-2-yl)methoxy)-4-hydroxyphenyl)ethan-1-aminium 2,2,2-trifluoroacetate]	54	0.35	1728	0.44 GM								
C=CCc1ccc(OCc2cc(OC)c3ccc(O)c(C#N)c3n2)c(OC)c1 [7c, 2-((4-Allyl-2-methoxyphenoxy)methyl)-7-hydroxy-4-methoxyquinoline-8-carbonitrile]	44	0.27	2047	0.75 GM	1.31 GM							

“Also recorded” adds a separate entry of the source. Read-outs that look alike come from different tables or passages of the source.
